This is one part of the list.
Biological target: OsWRKY34 (Oryza sativa, UniProt Q0JBA9 1-250)
Assay: protein-binding microarray (RPBM); PBS, 2% BSA, 51.3 ng/ul salmon testes DNA, 50 uM zinc acetate, 200 nM TF, 25 C, 1 h; high values mean tight binding
Conditions: protein: recombinant; tags: N-terminal polyhistidine and DsRed monomer fusion (pET32a); label: CyDye5-dUTP incorporated in the synthesized complementary strand; 3' TTTTT single-stranded linker to array surface; dsDNA, one strand shown
Summary of the method: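 Binding signal here means per-feature fluorescence intensity in arbitrary units. The values were read on an Axon 4000B scanner after a custom Agilent array, double-stranded by primer extension with Cy5-dUTP, was incubated with 200 nM protein at 25 °C for 1 h in PBS with 2% BSA, salmon testes DNA and 50 µM zinc acetate, then washed. The proteins were transcription factors with an N-terminal polyhistidine tag and DsRed, expressed in E. coli BL21-CodonPlus and purified on Ni–NTA.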

The chains behind the UniProt entries cited, without tags or fusion partners.
UniProt Q0JBA9, entry or part of it: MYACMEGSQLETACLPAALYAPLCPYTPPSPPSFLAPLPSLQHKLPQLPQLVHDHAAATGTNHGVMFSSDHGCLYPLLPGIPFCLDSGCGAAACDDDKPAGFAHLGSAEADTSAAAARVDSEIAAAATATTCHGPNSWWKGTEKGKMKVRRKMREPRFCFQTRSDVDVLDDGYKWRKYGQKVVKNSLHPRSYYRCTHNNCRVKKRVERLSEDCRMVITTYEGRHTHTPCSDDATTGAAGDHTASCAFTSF

| Sequence | binding signal |
| --- | --- |
| GCACGCCTAGTTTGTGTCACCAAGTCCCTATTAAATCCTTCGGAGTCACCTAGTGCAG | 9330 fluorescence intensity (a.u.) |
| TCGTGTCTCGGCTGCTCCGTATGATTCTTCCGTGAACTGACGGAGTCACCTAGTGCAG | 9100 fluorescence intensity (a.u.) |
| AAACTACAGCTGCACCATGTGCCCTGATCATACAGAGTATCGGAGTCACCTAGTGCAG | 8130 fluorescence intensity (a.u.) |
| GGTGCATGAGCATACTGTCCGGAAGTACTTGCTCATTTTGCGGAGTCACCTAGTGCAG | 8660 fluorescence intensity (a.u.) |
| ACTTATGTTGCTGTTTCCAGTTATATATATATATATCCTTCGGAGTCACCTAGTGCAG | 9590 fluorescence intensity (a.u.) |
| CCATGTAAGCTATTGTAGTCTCCTGATTCGTTCATGTCGACGGAGTCACCTAGTGCAG | 8680 fluorescence intensity (a.u.) |
| GATAGGTGCATGTGTATCAGTTTGTCAGAGGCTGCCCGTCCGGAGTCACCTAGTGCAG | 8400 fluorescence intensity (a.u.) |
| TCCCGCCTGATTCTTTTTTTTTTTGGTCGTGAGTTCTTCCCGGAGTCACCTAGTGCAG | 9580 fluorescence intensity (a.u.) |
| CTCCTTACCGATCTTCGTTTCGTTTCATACTCCGTACTACCGGAGTCACCTAGTGCAG | 14000 fluorescence intensity (a.u.) |
| GTTCGAGAACCCGTCCACGTTCATCCCAAGCATATGCATCCGGAGTCACCTAGTGCAG | 8340 fluorescence intensity (a.u.) |
| AATACTCATCGTTCCTGATCCAAGTGTTTAATTTTACAGCCGGAGTCACCTAGTGCAG | 9930 fluorescence intensity (a.u.) |
| CCTCGAGTGCGACTCCCTCCGCCGCGACGCCGCGCTCCTACGGAGTCACCTAGTGCAG | 8360 fluorescence intensity (a.u.) |
| CTCATCCTTGCCTTGCCTAGCTACTCTCATATCTCACCCTCGGAGTCACCTAGTGCAG | 10400 fluorescence intensity (a.u.) |
| TTCCTCCGACAATATCGATCCAGCAACCAGGTCAGCTCTTCGGAGTCACCTAGTGCAG | 9290 fluorescence intensity (a.u.) |
| GTGGCCGGCGGCGTTCGGGCGTGGGCGGGGAGGCCGGATCCGGAGTCACCTAGTGCAG | 13700 fluorescence intensity (a.u.) |
| CCCATTATTTTTTATACCTTTATTTATCTTCTGTGTTTTTCGGAGTCACCTAGTGCAG | 13500 fluorescence intensity (a.u.) |
| TTGCTCTAAAAGAGGGAGGGGAGCAGTGAGGACAAACATCCGGAGTCACCTAGTGCAG | 8720 fluorescence intensity (a.u.) |
| CGGCGGGCGGGAGGGCGGCGTTGATTTCGTTGGGGTTTGCCGGAGTCACCTAGTGCAG | 19100 fluorescence intensity (a.u.) |
| CTTGCGTCGCATCGCCGTTCCCGTCCATCCGGTGGATCTCCGGAGTCACCTAGTGCAG | 13900 fluorescence intensity (a.u.) |
| GGTTTTGCAGGGCGAGGAGGGAGGGGAGGAGGGAAGGATGCGGAGTCACCTAGTGCAG | 15900 fluorescence intensity (a.u.) |
| ATCCTCCAATTTTTCACATGCCCAATTCCTCCAAACCGAACGGAGTCACCTAGTGCAG | 8080 fluorescence intensity (a.u.) |
| AGTTGTGAGTACTTGTTAGGGTTCAAATTATTTGACTTGTCGGAGTCACCTAGTGCAG | 8640 fluorescence intensity (a.u.) |
| ATCCATCCGCACGAACTTGTCGTCGTTGCCCTTGCCGCTGCGGAGTCACCTAGTGCAG | 8820 fluorescence intensity (a.u.) |

Exported tab-delimited: part of the list above
Sequence	binding signal
CCTCGAGTGCGACTCCCTCCGCCGCGACGCCGCGCTCCTACGGAGTCACCTAGTGCAG	8360 fluorescence intensity (a.u.)
CTCATCCTTGCCTTGCCTAGCTACTCTCATATCTCACCCTCGGAGTCACCTAGTGCAG	10400 fluorescence intensity (a.u.)
TTCCTCCGACAATATCGATCCAGCAACCAGGTCAGCTCTTCGGAGTCACCTAGTGCAG	9290 fluorescence intensity (a.u.)
GTGGCCGGCGGCGTTCGGGCGTGGGCGGGGAGGCCGGATCCGGAGTCACCTAGTGCAG	13700 fluorescence intensity (a.u.)
